Literature values in patent US6413974B1, “6,9,-disubstituted 2-[trans-(4-aminocyclohexyl) amino] purines” (Aventis Pharmaceuticals Inc., priority 1998, dated 2002).

Test system: 60 human tumour cell lines
Conditions: read-out: average IC50, proliferation of 60 human tumour cell lines; NCI screen, nine tumour types, Meijer et al.; cited from earlier work

In the case of `CCC(CO)Nc1nc(NCc2ccccc2)c2ncn(C(C)C)c2n1` (stereo not shown) [107, 466 rescovitine, 2-(1-ethyl-2-hydroxyethylamino)-6-benzylamino-9-isopropylpurine], the IC50 is listed as 16 µM.
